# Laboratory results taken from the supplement of paper PMC8728848.
# The other results are listed elsewhere or left out.
# B1: SspB A3vp1 (Streptococcus gordonii), Q54186 (protein)
# chain: MTNEADYQAKLAAYQTELARVQKANADAKATYEKAVEDNKAKNAAIKAENEEIKQRNAVAKTDYEAKLAKYEADLAKYKKEFAAYTAALAEAESKKKQDGYLSEPRSQSLNFKSEPNAIRTIDSSVHQYGQQELDALVKSWGISPTNPDRKKSRAYSYFNAINSNNTYAKLVLEKDKPVDVTYTGLKNSSFNGKKISKVVYTYTLKETGFNDGTKMTMFASSDPTVTAWYNDYFTSTNINVKVKFYDEEGQLMNLTGGLVNFSSLNRGNGSGAIDKDAIESVRNFNGRYIPISGSSIKIHENNSAYADSSNAEKSLGARWNTSEWDTTSSPNNWYGAIVGEITQSEISFNMASSKSGNIWFAFNSNINAIGVPTKPVAPTAPTQPMYETEKPLEPAPVAPSYENEPTPPVKTPDQPEPSKPAAALEHHHHHH
# How the values were obtained:
# Assay in all cases: glycan array binding signal (z-score within array); higher = stronger binding
# Details in all cases: glycan notation: IUPAC condensed, linker removed
# [1] = molecular target: Neu5Ac(a2-3)Gal(b1-3)GlcNAc(b1-2)Man(a1-3)[GlcNAc(b1-4)][Neu5Ac(a2-3)Gal(b1-3)GlcNAc(b1-2)Man(a1-6)]Man(b1-4)GlcNAc(b1-4)GlcNAc
# How it was run: (§1)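 The Consortium for Functional Glycomics database supplied 3228 glycan arrays, of which those lacking an available protein sequence were dropped. The binding signal, a within-array Z-score, was averaged across arrays of the same protein sequence and across linkers. Negative scores can be read as non-binding.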
# [2] = molecular target: Neu5Ac(a2-3)Gal(b1-3)GlcNAc(b1-2)Man(a1-3)[Neu5Ac(a2-3)Gal(b1-3)GlcNAc(b1-2)Man(a1-6)]Man(b1-4)GlcNAc(b1-4)GlcNAc
# How it was run: as §1
# [3] = molecular target: Neu5Ac(a2-3)Gal(b1-3)GlcNAc(b1-3)Gal(b1-3)GlcNAc
# How it was run: as §1
# [4] = molecular target: Neu5Ac(a2-3)Gal(b1-3)GlcNAc(b1-3)Gal(b1-4)GlcNAc
# How it was run: as §1
# [5] = molecular target: Neu5Ac(a2-3)Gal(b1-3)GlcNAc(b1-3)GalNAc
# How it was run: as §1
# [6] = molecular target: Neu5Ac(a2-3)Gal(b1-3)GlcNAc(b1-4)Gal(b1-4)Glc
# How it was run: as §1
# [7] = molecular target: Neu5Ac(a2-3)Gal(b1-3)GlcNAc(b1-6)GalNAc
# How it was run: as §1
# [8] = molecular target: Neu5Ac(a2-3)Gal(b1-3)GlcNAc6S
# How it was run: as §1
# [9] = molecular target: Neu5Ac(a2-3)Gal(b1-3)[Fuc(a1-4)]GlcNAc
# How it was run: as §1
# [10] = molecular target: Neu5Ac(a2-3)Gal(b1-3)[Fuc(a1-4)]GlcNAc(b1-3)Gal(b1-3)[Fuc(a1-4)]GlcNAc
# How it was run: as §1
# [11] = molecular target: Neu5Ac(a2-3)Gal(b1-3)[Fuc(a1-4)]GlcNAc(b1-3)Gal(b1-4)[Fuc(a1-3)]GlcNAc
# How it was run: as §1
# [12] = molecular target: Neu5Ac(a2-3)Gal(b1-3)[GlcNAc(b1-6)]GalNAc
# How it was run: as §1
# [13] = molecular target: Neu5Ac(a2-3)Gal(b1-3)[Neu5Ac(a2-6)]GalNAc
# How it was run: as §1
# [14] = molecular target: Neu5Ac(a2-3)Gal(b1-3)[Neu5Ac(a2-6)]GlcNAc(b1-3)[Fuc(a1-3)[Gal(b1-4)]GlcNAc(b1-6)]Gal(b1-4)Glc
# How it was run: as §1
# [15] = molecular target: Neu5Ac(a2-3)Gal(b1-3)]Neu5Ac(a2-3)Gal(b1-4)]GlcNAc
# How it was run: as §1
# Neu5Ac(a2-3)Gal(b1-4)Glc = molecular target: Neu5Ac(a2-3)Gal(b1-4)Glc
# How it was run: as §1
# [16] = molecular target: Neu5Ac(a2-3)Gal(b1-4)GlcNAc
# How it was run: as §1
# [17] = molecular target: Neu5Ac(a2-3)Gal(b1-4)GlcNAc(b1-2)Man
# How it was run: as §1
# [18] = molecular target: Neu5Ac(a2-3)Gal(b1-4)GlcNAc(b1-2)Man(a1-3)[GlcNAc(b1-4)][Neu5Ac(a2-3)Gal(b1-4)GlcNAc(b1-2)Man(a1-6)]Man(b1-4)GlcNAc(b1-4)GlcNAc
# How it was run: as §1
# [19] = molecular target: Neu5Ac(a2-3)Gal(b1-4)GlcNAc(b1-2)Man(a1-3)[Neu5Ac(a2-3)Gal(b1-4)GlcNAc(b1-2)Man(a1-6)]Man(b1-4)GlcNAc(b1-4)GlcNAc
# How it was run: as §1
# [20] = molecular target: Neu5Ac(a2-3)Gal(b1-4)GlcNAc(b1-2)Man(a1-3)[Neu5Ac(a2-3)Gal(b1-4)GlcNAc(b1-2)Man(a1-6)]Man(b1-4)GlcNAc(b1-4)[Fuc(a1-6)]GlcNAc
# How it was run: as §1
# [21] = molecular target: Neu5Ac(a2-3)Gal(b1-4)GlcNAc(b1-2)Man(a1-3)[Neu5Ac(a2-6)Gal(b1-4)GlcNAc(b1-2)Man(a1-6)]Man(b1-4)GlcNAc(b1-4)GlcNAc
# How it was run: as §1
# [22] = molecular target: Neu5Ac(a2-3)Gal(b1-4)GlcNAc(b1-2)[Neu5Ac(a2-3)Gal(b1-4)GlcNAc(b1-4)]Man(a1-3)[GlcNAc(b1-4)][Neu5Ac(a2-3)Gal(b1-4)GlcNAc(b1-2)[Neu5Ac(a2-3)Gal(b1-4)GlcNAc(b1-6)]Man(a1-6)]Man(b1-4)GlcNAc(b1-4)GlcNAc
# How it was run: as §1
# [23] = molecular target: Neu5Ac(a2-3)Gal(b1-4)GlcNAc(b1-2)[Neu5Ac(a2-3)Gal(b1-4)GlcNAc(b1-4)]Man(a1-3)[GlcNAc(b1-4)][Neu5Ac(a2-3)Gal(b1-4)GlcNAc(b1-4)Man(a1-6)]Man(b1-4)GlcNAc(b1-4)GlcNAc
# How it was run: as §1
# [24] = molecular target: Neu5Ac(a2-3)Gal(b1-4)GlcNAc(b1-2)[Neu5Ac(a2-3)Gal(b1-4)GlcNAc(b1-6)]Man(a1-6)[Neu5Ac(a2-3)Gal(b1-4)GlcNAc(b1-2)Man(a1-3)]Man(b1-4)GlcNAc(b1-4)GlcNAc
# How it was run: as §1
# [25] = molecular target: Neu5Ac(a2-3)Gal(b1-4)GlcNAc(b1-2)[Neu5Ac(a2-3)Gal(b1-4)GlcNAc(b1-6)]Man(a1-6)[Neu5Ac(a2-3)Gal(b1-4)GlcNAc(b1-2)Man(a1-3)][GlcNAc(b1-4)]Man(b1-4)GlcNAc(b1-4)GlcNAc
# How it was run: as §1
# [26] = molecular target: Neu5Ac(a2-3)Gal(b1-4)GlcNAc(b1-3)Gal
# How it was run: as §1
# [27] = molecular target: Neu5Ac(a2-3)Gal(b1-4)GlcNAc(b1-3)Gal(b1-3)GlcNAc
# How it was run: as §1
# [28] = molecular target: Neu5Ac(a2-3)Gal(b1-4)GlcNAc(b1-3)Gal(b1-4)GlcNAc
# How it was run: as §1
# [29] = molecular target: Neu5Ac(a2-3)Gal(b1-4)GlcNAc(b1-3)Gal(b1-4)GlcNAc(b1-2)Man(a1-3)[Neu5Ac(a2-3)Gal(b1-4)GlcNAc(b1-3)Gal(b1-4)GlcNAc(b1-2)Man(a1-6)]Man(b1-4)GlcNAc(b1-4)GlcNAc
# How it was run: as §1
# [30] = molecular target: Neu5Ac(a2-3)Gal(b1-4)GlcNAc(b1-3)Gal(b1-4)GlcNAc(b1-3)Gal(b1-4)GlcNAc
# How it was run: as §1
# [31] = molecular target: Neu5Ac(a2-3)Gal(b1-4)GlcNAc(b1-3)Gal(b1-4)GlcNAc(b1-3)Gal(b1-4)GlcNAc(b1-2)Man(a1-3)[Neu5Ac(a2-3)Gal(b1-4)GlcNAc(b1-3)Gal(b1-4)GlcNAc(b1-3)Gal(b1-4)GlcNAc(b1-2)Man(a1-6)]GalNAc
# How it was run: as §1
# [32] = molecular target: Neu5Ac(a2-3)Gal(b1-4)GlcNAc(b1-3)Gal(b1-4)GlcNAc(b1-3)GalNAc
# How it was run: as §1
# [33] = molecular target: Neu5Ac(a2-3)Gal(b1-4)GlcNAc(b1-3)Gal(b1-4)GlcNAc(b1-3)[Neu5Ac(a2-3)Gal(b1-4)GlcNAc(b1-3)Gal(b1-4)GlcNAc(b1-6)]GalNAc
# How it was run: as §1
# [34] = molecular target: Neu5Ac(a2-3)Gal(b1-4)GlcNAc(b1-3)Gal(b1-4)GlcNAc(b1-6)[Gal(b1-3)]GalNAc
# How it was run: as §1
# [35] = molecular target: Neu5Ac(a2-3)Gal(b1-4)GlcNAc(b1-3)Gal(b1-4)[Fuc(a1-3)]GlcNAc
# How it was run: as §1
# [36] = molecular target: Neu5Ac(a2-3)Gal(b1-4)GlcNAc(b1-3)GalNAc
# How it was run: as §1
# [37] = molecular target: Neu5Ac(a2-3)Gal(b1-4)GlcNAc(b1-3)[Neu5Ac(a2-3)Gal(b1-4)GlcNAc(b1-6)]GalNAc
# How it was run: as §1
binder,measurement,setting,value
B1,glycan array binding signal (z-score),[1],0.06
same,glycan array binding signal (z-score),[2],0.14
same,glycan array binding signal (z-score),[3],0.005
same,glycan array binding signal (z-score),[4],-0.489
same,glycan array binding signal (z-score),[5],-0.616
same,glycan array binding signal (z-score),[6],-0.254
same,glycan array binding signal (z-score),[7],0.486
same,glycan array binding signal (z-score),[8],-1.23
same,glycan array binding signal (z-score),[9],-0.547
same,glycan array binding signal (z-score),[10],-0.099
same,glycan array binding signal (z-score),[11],0.472
same,glycan array binding signal (z-score),[12],-1.02
same,glycan array binding signal (z-score),[13],0.286
same,glycan array binding signal (z-score),[14],-0.752
same,glycan array binding signal (z-score),[15],-1.3
same,glycan array binding signal (z-score),Neu5Ac(a2-3)Gal(b1-4)Glc,-0.328
same,glycan array binding signal (z-score),[16],-0.071
same,glycan array binding signal (z-score),[17],1.88
same,glycan array binding signal (z-score),[18],-0.541
same,glycan array binding signal (z-score),[19],-0.413
same,glycan array binding signal (z-score),[20],-0.415
same,glycan array binding signal (z-score),[21],-0.006
same,glycan array binding signal (z-score),[22],-0.151
same,glycan array binding signal (z-score),[23],-0.366
same,glycan array binding signal (z-score),[24],1.07
same,glycan array binding signal (z-score),[25],-0.681
same,glycan array binding signal (z-score),[26],-0.803
same,glycan array binding signal (z-score),[27],-0.773
same,glycan array binding signal (z-score),[28],-0.976
same,glycan array binding signal (z-score),[29],3.69
same,glycan array binding signal (z-score),[30],-0.832
same,glycan array binding signal (z-score),[31],0.678
same,glycan array binding signal (z-score),[32],-1.13
same,glycan array binding signal (z-score),[33],0.05
same,glycan array binding signal (z-score),[34],0.781
same,glycan array binding signal (z-score),[35],-0.251
same,glycan array binding signal (z-score),[36],-0.47
same,glycan array binding signal (z-score),[37],-0.774

# Rewritten as tab-separated lines: entries from further up.
binder	measurement	setting	value
B1	glycan array binding signal (z-score)	[8]	-1.23
same	glycan array binding signal (z-score)	[18]	-0.541
same	glycan array binding signal (z-score)	[23]	-0.366
